Source: patent US20240301003A1 (NoNO Inc., priority 2021, published 2024)
Where two headings read alike, the source gives them in different places. Not every detail of the peptide structures is certain; ends, links or a residue may be inferred. Where a SMILES comes first, the peptide text is derived from it.

Experiments:
[1] = test system: middle cerebral artery embolic stroke; test: Embolic MCA occlusion model; assay type: in vivo; conditions: with lodoxamide, 24 hours after stroke onset
[2] = test system: 3-pial vessel occlusion model of stroke

| Structure (SMILES) | neurological outcome [1] | infarct volume compared to placebo ([2]; 7.6 mg/kg subcutaneous bolus 60 minutes after onset of stroke) | infarct volume compared to placebo ([2]; 25 mg/kg subcutaneous bolus 60 minutes after onset of stroke) | lower dose of NA-3 as effective as nerinetide (7.6 versus 25 mg/kg) ([2]; subcutaneous, equivalent reduction in infarct volume) [fold] |
| --- | --- | --- | --- | --- |
| CC[C@H](C)[C@H](NC(=O)[C@H](CO)NC(=O)[C@H](CO)NC(=O)[C@H](CC(C)C)NC(=O)[C@H](CCCCN)NC(=O)[C@@H](CCCNC(=N)N)NC(=O)[C@@H](CCCNC(=N)N)NC(=O)[C@@H](CCCNC(=N)N)NC(=O)[C@@H](CCC(N)=O)NC(=O)[C@@H](CCCNC(=N)N)NC(=O)[C@@H](CCCNC(=N)N)NC(=O)[C@@H](CCCCN)NC(=O)[C@@H](CCCCN)NC(=O)[C@@H](CCCNC(=N)N)NC(=O)CNC(=O)[C@H](N)Cc1ccc(O)cc1)C(=O)N[C@@H](CCC(=O)O)C(=O)N[C@@H](CO)C(=O)N[C@@H](CC(=O)O)C(=O)N[C@H](C(=O)O)C(C)C [D-Tat-L-2B9C] (HELM PEPTIDE1{[dY].G.[dR].[dK].[dK].[dR].[dR].[dQ].[dR].[dR].[dR].K.L.S.S.I.E.S.D.V}$$$$V2.0; N-terminus and C-terminus assumed) | improved neurological outcome | – | – | – |
| CC[C@H](C)[C@H](NC(=O)[C@@H](CO)NC(=O)[C@@H](CO)NC(=O)[C@@H](CC(C)C)NC(=O)[C@@H](CCCCN)NC(=O)[C@@H](CCCNC(=N)N)NC(=O)[C@@H](CCCNC(=N)N)NC(=O)[C@@H](CCCNC(=N)N)NC(=O)[C@@H](CCC(N)=O)NC(=O)[C@@H](CCCNC(=N)N)NC(=O)[C@@H](CCCNC(=N)N)NC(=O)[C@@H](CCCCN)NC(=O)[C@@H](CCCCN)NC(=O)[C@@H](CCCNC(=N)N)NC(=O)CNC(=O)[C@H](N)Cc1ccc(O)cc1)C(=O)N[C@@H](CCC(=O)O)C(=O)N[C@@H](CO)C(=O)N[C@@H](CC(=O)O)C(=O)N[C@H](C(=O)O)C(C)C [NA-3, ygrkkrrqrrrklssIESDV] (HELM PEPTIDE1{[dY].G.[dR].[dK].[dK].[dR].[dR].[dQ].[dR].[dR].[dR].[dK].[dL].[dS].[dS].I.E.S.D.V}$$$$V2.0; N-terminus and C-terminus assumed) | – | significant reduction in infarct volume | significant reduction in infarct volume | 3 |
